Reference: doi:10.1101/2020.07.08.161463 (bioRxiv, 2020)

The chains behind the UniProt entries cited, without tags or fusion partners. Where a name states a change or a piece, a line headed by the entry shows the natural chain unless it says otherwise.
UniProt Q92599: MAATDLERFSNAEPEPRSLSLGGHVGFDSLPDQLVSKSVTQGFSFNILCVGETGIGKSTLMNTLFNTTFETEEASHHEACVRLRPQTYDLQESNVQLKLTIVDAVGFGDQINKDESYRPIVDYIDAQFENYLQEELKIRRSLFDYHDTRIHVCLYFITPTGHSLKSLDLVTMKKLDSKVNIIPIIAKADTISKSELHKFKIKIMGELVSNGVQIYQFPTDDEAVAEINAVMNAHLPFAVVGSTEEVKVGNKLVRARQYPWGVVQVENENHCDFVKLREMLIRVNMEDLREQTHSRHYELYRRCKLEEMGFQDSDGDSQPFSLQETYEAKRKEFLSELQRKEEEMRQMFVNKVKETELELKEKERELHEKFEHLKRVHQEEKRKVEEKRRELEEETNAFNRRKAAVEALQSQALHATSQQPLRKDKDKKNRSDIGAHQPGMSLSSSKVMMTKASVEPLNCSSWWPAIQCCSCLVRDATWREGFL
UniProt Q9NVA2: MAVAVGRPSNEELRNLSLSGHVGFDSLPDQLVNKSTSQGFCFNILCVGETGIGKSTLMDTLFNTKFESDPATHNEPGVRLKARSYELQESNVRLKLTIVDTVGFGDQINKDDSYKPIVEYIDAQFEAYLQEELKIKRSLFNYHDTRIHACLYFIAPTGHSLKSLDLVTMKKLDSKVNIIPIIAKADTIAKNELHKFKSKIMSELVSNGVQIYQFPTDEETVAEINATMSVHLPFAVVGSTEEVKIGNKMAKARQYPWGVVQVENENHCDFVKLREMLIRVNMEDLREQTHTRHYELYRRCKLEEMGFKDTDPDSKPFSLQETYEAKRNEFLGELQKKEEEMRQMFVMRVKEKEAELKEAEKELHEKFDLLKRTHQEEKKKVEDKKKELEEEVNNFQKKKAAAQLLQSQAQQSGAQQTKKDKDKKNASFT
UniProt Q14141: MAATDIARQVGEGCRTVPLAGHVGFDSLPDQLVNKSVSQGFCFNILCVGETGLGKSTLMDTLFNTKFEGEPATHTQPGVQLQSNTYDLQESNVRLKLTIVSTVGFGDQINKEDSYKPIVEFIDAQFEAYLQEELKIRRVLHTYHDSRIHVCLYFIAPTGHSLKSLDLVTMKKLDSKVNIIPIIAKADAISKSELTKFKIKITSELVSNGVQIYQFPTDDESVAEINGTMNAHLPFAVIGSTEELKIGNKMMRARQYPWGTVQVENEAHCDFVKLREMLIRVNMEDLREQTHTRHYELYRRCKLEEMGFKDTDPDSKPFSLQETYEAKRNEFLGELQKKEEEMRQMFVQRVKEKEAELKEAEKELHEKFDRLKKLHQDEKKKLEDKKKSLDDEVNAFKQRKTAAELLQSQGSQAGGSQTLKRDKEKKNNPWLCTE

Assays:
[1] = biological target: G domain of SEPT8 (human) (UniProt Q92599); assay: SEC-MALS
[2] = biological target: G domain of SEPT11 (human) (UniProt Q9NVA2); assay: SEC-MALS
[3] = biological target: G domain of SEPT6 (human) (UniProt Q14141); assay: SEC-MALS
[4] = biological target: G domain of SEPT8 (human) (UniProt Q92599); assay: crystal structure
[5] = biological target: G domain of SEPT11 (human) (UniProt Q9NVA2); assay: crystal structure

Row | binding [1] | binding [2] | binding [3] | binding [4] | binding [5] | Sequence
1 | binds | binds | binds | – | – | G domain of SEPT5 (from UniProt Q99719-1) (domain or fragment)
2 | binds | binds | binds | – | – | G domain of SEPT4 (from UniProt O43236-1) (domain or fragment)
3 | binds | binds | – | binds | binds | G domain of SEPT2 (from UniProt Q15019-1) (domain or fragment)

No constants are given. Whether binding was seen depends on the method and setting. Binding seen in cells or lysates may run through a third protein. A result given as binding can be weak or reduced; the word gives no strength.
